# Results taken from the supplement of paper PMC6411743.
# Sequences of proteins named here, by UniProt entry; tags and fusion partners are left off. A change or cut given only in a name is not applied to a line headed by its entry.
# UniProt P50747: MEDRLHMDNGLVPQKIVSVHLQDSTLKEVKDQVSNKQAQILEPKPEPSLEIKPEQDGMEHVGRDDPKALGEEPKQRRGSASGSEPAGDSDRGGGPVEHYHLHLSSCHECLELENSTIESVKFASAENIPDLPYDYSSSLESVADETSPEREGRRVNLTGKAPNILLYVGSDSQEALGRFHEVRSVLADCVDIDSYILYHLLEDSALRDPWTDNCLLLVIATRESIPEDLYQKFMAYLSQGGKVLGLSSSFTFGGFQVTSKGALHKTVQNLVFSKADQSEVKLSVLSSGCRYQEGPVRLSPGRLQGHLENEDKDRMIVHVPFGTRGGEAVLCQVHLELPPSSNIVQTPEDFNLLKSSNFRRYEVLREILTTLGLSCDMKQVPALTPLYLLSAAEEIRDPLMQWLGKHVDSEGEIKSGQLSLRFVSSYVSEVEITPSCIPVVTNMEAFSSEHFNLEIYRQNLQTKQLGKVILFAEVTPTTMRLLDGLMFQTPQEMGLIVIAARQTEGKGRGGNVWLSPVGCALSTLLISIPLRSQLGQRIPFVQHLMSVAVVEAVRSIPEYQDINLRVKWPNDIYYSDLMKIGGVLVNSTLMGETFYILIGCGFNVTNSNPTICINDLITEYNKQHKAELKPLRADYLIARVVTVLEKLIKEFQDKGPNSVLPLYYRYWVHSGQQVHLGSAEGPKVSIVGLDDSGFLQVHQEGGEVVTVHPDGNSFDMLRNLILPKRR
# UniProt P46736, whole entry: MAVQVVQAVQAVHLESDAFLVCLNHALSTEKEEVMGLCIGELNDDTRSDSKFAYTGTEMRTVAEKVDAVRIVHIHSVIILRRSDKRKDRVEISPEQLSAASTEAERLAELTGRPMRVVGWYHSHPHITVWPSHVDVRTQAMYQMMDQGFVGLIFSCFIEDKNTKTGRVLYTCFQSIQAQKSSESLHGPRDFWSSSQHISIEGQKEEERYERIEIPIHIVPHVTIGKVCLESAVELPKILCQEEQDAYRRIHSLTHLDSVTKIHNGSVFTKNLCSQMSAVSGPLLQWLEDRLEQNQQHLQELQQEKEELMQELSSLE
# UniProt P47897: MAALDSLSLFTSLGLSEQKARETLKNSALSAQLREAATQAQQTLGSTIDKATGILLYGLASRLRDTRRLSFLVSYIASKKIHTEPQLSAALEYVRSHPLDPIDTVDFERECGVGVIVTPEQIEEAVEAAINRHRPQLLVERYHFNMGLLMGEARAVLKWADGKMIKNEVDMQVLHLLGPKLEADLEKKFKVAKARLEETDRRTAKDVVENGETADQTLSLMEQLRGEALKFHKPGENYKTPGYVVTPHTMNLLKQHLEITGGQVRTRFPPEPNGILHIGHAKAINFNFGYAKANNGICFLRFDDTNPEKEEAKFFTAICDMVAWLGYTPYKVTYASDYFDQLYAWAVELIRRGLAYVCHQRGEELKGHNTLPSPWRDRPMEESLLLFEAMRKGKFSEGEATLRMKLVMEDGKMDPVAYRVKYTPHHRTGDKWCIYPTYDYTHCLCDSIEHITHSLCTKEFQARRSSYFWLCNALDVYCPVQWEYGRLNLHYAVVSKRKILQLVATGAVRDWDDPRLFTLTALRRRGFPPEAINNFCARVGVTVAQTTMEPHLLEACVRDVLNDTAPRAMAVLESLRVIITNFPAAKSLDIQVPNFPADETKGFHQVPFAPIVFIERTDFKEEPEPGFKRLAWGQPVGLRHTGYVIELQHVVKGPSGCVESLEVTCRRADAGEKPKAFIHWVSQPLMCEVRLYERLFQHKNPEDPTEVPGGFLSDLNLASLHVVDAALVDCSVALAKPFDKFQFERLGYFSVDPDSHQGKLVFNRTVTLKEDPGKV
# UniProt P51570: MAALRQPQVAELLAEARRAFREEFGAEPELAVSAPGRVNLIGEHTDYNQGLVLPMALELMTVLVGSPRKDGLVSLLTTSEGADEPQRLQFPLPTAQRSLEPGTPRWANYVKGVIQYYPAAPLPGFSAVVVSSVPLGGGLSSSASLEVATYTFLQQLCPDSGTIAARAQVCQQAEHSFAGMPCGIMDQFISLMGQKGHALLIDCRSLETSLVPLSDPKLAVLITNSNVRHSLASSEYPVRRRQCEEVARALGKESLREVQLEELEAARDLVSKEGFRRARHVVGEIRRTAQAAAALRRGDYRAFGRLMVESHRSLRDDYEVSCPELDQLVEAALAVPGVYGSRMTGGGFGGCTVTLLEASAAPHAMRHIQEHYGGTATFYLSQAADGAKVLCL
# UniProt P49757: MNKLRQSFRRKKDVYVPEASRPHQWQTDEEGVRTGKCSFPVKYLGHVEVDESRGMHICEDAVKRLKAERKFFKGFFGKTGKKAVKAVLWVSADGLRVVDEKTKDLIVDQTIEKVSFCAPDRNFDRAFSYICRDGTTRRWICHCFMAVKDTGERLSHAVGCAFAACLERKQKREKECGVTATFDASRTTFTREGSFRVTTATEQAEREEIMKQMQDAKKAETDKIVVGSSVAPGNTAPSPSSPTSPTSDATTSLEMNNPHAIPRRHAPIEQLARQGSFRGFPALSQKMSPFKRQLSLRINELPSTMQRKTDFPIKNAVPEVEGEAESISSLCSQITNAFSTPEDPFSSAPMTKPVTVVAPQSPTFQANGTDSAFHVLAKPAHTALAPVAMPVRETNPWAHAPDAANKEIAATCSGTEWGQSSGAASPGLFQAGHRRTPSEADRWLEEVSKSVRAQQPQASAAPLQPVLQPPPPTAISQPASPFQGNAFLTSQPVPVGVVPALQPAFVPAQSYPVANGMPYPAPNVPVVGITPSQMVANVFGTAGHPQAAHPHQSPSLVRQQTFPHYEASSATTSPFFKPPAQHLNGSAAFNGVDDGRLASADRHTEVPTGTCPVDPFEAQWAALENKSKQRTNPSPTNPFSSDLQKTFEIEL
# UniProt P46109: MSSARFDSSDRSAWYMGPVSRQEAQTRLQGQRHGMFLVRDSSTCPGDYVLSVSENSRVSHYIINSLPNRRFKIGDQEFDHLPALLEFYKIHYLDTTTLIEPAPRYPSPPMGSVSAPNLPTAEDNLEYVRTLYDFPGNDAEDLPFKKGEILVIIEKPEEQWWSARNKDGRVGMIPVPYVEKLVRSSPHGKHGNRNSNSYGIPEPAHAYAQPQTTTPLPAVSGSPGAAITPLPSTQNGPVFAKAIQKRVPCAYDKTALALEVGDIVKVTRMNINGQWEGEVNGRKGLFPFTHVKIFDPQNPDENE
# UniProt P51149, whole entry: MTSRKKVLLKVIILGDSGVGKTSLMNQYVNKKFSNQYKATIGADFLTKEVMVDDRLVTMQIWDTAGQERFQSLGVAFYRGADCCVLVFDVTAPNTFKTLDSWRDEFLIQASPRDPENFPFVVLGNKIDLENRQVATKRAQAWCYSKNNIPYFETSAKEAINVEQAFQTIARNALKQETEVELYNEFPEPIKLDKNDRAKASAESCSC
# UniProt P52655, whole entry: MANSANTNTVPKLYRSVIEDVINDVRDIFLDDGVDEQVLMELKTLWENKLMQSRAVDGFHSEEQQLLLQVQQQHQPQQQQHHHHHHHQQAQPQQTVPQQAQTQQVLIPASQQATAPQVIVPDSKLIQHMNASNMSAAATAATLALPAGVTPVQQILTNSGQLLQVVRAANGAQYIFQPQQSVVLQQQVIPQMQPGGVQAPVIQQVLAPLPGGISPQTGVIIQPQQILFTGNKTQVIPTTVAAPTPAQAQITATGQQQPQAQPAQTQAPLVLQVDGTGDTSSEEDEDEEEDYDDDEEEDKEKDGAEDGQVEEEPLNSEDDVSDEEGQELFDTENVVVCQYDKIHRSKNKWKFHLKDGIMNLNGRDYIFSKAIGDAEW
# UniProt P46459: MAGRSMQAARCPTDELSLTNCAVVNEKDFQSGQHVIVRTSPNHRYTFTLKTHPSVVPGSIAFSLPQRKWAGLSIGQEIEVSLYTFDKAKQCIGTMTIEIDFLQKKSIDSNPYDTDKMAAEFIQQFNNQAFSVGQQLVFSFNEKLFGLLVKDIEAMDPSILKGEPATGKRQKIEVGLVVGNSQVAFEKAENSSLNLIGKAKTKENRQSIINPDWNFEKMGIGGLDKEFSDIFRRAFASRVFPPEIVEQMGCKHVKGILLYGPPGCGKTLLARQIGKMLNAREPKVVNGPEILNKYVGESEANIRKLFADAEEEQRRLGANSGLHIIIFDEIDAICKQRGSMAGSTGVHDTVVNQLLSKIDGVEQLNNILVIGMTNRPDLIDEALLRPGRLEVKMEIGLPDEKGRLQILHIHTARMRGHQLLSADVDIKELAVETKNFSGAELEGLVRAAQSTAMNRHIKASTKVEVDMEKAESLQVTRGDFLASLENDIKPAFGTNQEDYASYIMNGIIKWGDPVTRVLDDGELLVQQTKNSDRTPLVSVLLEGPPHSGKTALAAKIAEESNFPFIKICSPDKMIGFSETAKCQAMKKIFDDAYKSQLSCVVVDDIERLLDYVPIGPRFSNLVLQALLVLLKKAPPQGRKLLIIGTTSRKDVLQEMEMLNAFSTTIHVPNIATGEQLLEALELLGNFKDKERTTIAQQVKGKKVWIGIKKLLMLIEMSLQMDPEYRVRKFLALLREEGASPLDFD
# UniProt P48960: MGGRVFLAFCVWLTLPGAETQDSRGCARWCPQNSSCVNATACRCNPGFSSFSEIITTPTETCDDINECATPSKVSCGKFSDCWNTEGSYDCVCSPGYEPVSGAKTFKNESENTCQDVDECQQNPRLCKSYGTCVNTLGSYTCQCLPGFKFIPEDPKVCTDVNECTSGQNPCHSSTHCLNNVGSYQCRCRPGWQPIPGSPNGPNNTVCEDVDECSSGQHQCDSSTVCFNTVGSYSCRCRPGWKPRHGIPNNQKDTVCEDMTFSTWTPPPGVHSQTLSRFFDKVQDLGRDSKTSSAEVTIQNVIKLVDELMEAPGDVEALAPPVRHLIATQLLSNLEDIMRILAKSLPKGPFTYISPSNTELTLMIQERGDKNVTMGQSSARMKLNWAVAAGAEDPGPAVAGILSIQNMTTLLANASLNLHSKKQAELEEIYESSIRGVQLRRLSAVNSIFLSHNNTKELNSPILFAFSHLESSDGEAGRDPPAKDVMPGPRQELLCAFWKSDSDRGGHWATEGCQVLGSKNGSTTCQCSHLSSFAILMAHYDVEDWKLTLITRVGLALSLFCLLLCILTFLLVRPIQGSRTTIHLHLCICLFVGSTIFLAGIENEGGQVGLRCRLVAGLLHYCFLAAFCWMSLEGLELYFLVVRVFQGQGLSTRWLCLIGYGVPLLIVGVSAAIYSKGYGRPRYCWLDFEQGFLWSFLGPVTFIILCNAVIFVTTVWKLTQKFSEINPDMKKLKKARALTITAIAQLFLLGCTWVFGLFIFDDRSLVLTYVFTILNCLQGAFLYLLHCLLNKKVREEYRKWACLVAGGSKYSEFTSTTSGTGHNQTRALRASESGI
# UniProt P48643, whole entry: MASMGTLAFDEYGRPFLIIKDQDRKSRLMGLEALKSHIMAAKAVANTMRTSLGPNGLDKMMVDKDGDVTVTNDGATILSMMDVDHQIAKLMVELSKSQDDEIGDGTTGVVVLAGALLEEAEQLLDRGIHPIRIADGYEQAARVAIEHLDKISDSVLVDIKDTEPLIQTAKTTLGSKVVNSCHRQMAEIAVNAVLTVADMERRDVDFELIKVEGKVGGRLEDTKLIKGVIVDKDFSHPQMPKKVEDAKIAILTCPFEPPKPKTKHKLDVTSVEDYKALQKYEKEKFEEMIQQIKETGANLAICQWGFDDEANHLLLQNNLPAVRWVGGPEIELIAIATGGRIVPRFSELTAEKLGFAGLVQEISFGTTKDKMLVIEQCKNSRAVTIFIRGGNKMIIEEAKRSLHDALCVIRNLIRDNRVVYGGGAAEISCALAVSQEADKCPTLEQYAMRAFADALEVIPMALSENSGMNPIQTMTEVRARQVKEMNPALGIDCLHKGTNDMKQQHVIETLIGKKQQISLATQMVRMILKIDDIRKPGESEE
# UniProt P52943: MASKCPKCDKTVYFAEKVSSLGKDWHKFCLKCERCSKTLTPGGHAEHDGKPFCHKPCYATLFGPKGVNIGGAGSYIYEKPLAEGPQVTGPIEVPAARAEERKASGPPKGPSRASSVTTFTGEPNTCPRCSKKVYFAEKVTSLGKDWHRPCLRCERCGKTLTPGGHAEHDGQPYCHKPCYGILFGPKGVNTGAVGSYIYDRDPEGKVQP
# UniProt P49458: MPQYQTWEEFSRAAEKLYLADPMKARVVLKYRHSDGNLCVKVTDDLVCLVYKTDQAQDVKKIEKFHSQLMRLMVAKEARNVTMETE
# UniProt P38919, whole entry: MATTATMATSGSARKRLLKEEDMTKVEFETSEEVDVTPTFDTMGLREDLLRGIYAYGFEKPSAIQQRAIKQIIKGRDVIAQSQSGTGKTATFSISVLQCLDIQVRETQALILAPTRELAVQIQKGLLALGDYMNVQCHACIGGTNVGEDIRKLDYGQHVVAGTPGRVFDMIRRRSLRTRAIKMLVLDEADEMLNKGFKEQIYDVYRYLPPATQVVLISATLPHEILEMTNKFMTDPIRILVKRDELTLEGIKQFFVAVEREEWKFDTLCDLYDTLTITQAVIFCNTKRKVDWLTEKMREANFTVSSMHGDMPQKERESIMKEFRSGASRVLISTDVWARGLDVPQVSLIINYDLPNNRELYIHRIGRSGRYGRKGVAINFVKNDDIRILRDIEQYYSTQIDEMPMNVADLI
# ± gives the standard deviation of the averaged measurements. Only a part is listed here, and it is no random draw.
# Compound: Nc1ncnc2c1ncn2[C@@H]1O[C@H](COP(=O)(O)OP(=O)(O)OP(=O)(O)O)[C@@H](O)[C@H]1O [adenosine triphosphate]
# Assay: NP40-soluble protein abundance relative to vehicle (solubility fold change) (ratio); higher = more soluble protein in presence of ATP
# In short: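 Crude Jurkat lysate, prepared by Dounce homogenisation, was exposed to eight concentrations from 0.1 to 10 mM for 10 min at room temperature and then 3 min at 37 °C. Solubilisation used 0.8% NP40 with benzonase for 60 min at 4 °C, followed by ultracentrifugation and TMT labelling of the supernatant for LC-MS/MS. After vsn normalisation of intensities, each value is the fold change against the detergent-processed vehicle within each replicate, across three independent experiments.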
Target,NP40-soluble protein abundance (concentration: 1mM),NP40-soluble protein abundance (concentration: 2mM),NP40-soluble protein abundance (concentration: 4mM),NP40-soluble protein abundance (concentration: 6mM),NP40-soluble protein abundance (concentration: 8mM),NP40-soluble protein abundance (concentration: 10mM)
UniProt P36507,0.988 ± 0.023,0.973 ± 0.023,0.96 ± 0.027,0.958 ± 0.03,0.935 ± 0.02,0.944 ± 0.021
UniProt P40763 and related entries,0.994 ± 0.057,1.01 ± 0.058,0.975 ± 0.036,0.987 ± 0.077,0.983 ± 0.022,0.986 ± 0.028
UniProt P47813,0.86926 ± 0.00016,0.951 ± 0.085,0.975 ± 0.086,0.939 ± 0.095,1.03 ± 0.073,1.104 ± 0.011
RBM5 (UniProt P52756),1.054 ± 0.0081,1.04 ± 0.065,1.11 ± 0.052,1.13 ± 0.094,1.16 ± 0.045,1.18 ± 0.071
DAP3 (UniProt P51398),1.04 ± 0.031,0.959 ± 0.066,0.951 ± 0.11,0.94 ± 0.13,0.951 ± 0.14,0.892 ± 0.1
HINT1 (UniProt P49773),0.97 ± 0.081,0.954 ± 0.012,0.917 ± 0.017,0.962 ± 0.0099,0.925 ± 0.013,0.875 ± 0.036
GTF2A2 (UniProt P52657),0.865 ± 0.098,0.889 ± 0.11,0.849 ± 0.077,0.886 ± 0.11,0.829 ± 0.087,0.789 ± 0.16
RPL3 (UniProt P39023),1.02 ± 0.049,0.95 ± 0.046,0.958 ± 0.067,0.9 ± 0.067,0.863 ± 0.094,1 ± 0.07
UniProt P46939 and related entries,0.967 ± 0.028,0.986 ± 0.011,0.9901 ± 0.0028,1.01 ± 0.035,0.956 ± 0.017,0.9861 ± 0.0089
DAP (UniProt P51397),0.911 ± 0.11,0.935 ± 0.07,0.929 ± 0.13,1 ± 0.04,0.825 ± 0.059,0.917 ± 0.086
PBX2 (UniProt P40425),0.979 ± 0.059,1.01 ± 0.11,0.969 ± 0.071,0.987 ± 0.069,0.945 ± 0.074,0.925 ± 0.078
UniProt P42684 and related entries,1.01 ± 0.077,0.984 ± 0.091,0.929 ± 0.12,0.951 ± 0.14,0.87 ± 0.095,0.91 ± 0.17
LIG4 (UniProt P49917),1.19 ± 0.079,1.22 ± 0.1,1.26 ± 0.098,1.21 ± 0.13,1.3 ± 0.14,1.32 ± 0.16
HLCS (UniProt P50747),0.971 ± 0.022,0.954 ± 0.02,0.994 ± 0.038,0.944 ± 0.033,0.937 ± 0.026,0.884 ± 0.11
UniProt P46783 and related entries,0.969 ± 0.14,0.917 ± 0.1,0.888 ± 0.11,0.884 ± 0.15,0.814 ± 0.092,0.857 ± 0.074
UniProt P45983-3|P45983-4,1.03 ± 0.051,1.04 ± 0.079,1.02 ± 0.093,1 ± 0.064,1.01 ± 0.072,0.99 ± 0.039
UniProt P46736-2|P46736,1.03 ± 0.077,0.979 ± 0.027,0.995 ± 0.018,0.958 ± 0.078,0.998 ± 0.029,0.966 ± 0.021
UniProt P51812,1.09 ± 0.15,1.04 ± 0.084,1.03 ± 0.075,0.952 ± 0.12,1.05 ± 0.078,1.02 ± 0.056
RPS19 (UniProt P39019),0.863 ± 0.16,0.786 ± 0.19,0.74 ± 0.17,0.769 ± 0.24,0.573 ± 0.14,0.683 ± 0.17
SERPINB8 (UniProt P50452),0.986 ± 0.067,0.984 ± 0.064,0.944 ± 0.048,0.948 ± 0.079,0.967 ± 0.054,0.965 ± 0.076

# Part of the list above, showing only NP40-soluble protein abundance (concentration: 2mM) and NP40-soluble protein abundance (concentration: 8mM):
Target,NP40-soluble protein abundance (concentration: 2mM),NP40-soluble protein abundance (concentration: 8mM)
UniProt P36507,0.973 ± 0.023,0.935 ± 0.02
UniProt P40763 and related entries,1.01 ± 0.058,0.983 ± 0.022
UniProt P47813,0.951 ± 0.085,1.03 ± 0.073
RBM5 (UniProt P52756),1.04 ± 0.065,1.16 ± 0.045
DAP3 (UniProt P51398),0.959 ± 0.066,0.951 ± 0.14

# A different layout for part of the listing above.
Target	NP40-soluble protein abundance (concentration: 1mM)	NP40-soluble protein abundance (concentration: 2mM)	NP40-soluble protein abundance (concentration: 4mM)	NP40-soluble protein abundance (concentration: 6mM)	NP40-soluble protein abundance (concentration: 8mM)	NP40-soluble protein abundance (concentration: 10mM)
PBX2 (UniProt P40425)	0.979 ± 0.059	1.01 ± 0.11	0.969 ± 0.071	0.987 ± 0.069	0.945 ± 0.074	0.925 ± 0.078
UniProt P46736-2|P46736	1.03 ± 0.077	0.979 ± 0.027	0.995 ± 0.018	0.958 ± 0.078	0.998 ± 0.029	0.966 ± 0.021

# (listing goes on)

Target,NP40-soluble protein abundance (concentration: 1mM),NP40-soluble protein abundance (concentration: 2mM),NP40-soluble protein abundance (concentration: 4mM),NP40-soluble protein abundance (concentration: 6mM),NP40-soluble protein abundance (concentration: 8mM),NP40-soluble protein abundance (concentration: 10mM)
QARS (UniProt P47897),1.03 ± 0.05,0.976 ± 0.031,0.9623 ± 0.0076,0.921 ± 0.087,1.02 ± 0.051,0.969 ± 0.081
UniProt P42331-4|P42331,0.97 ± 0.034,0.984 ± 0.029,0.983 ± 0.03,0.996 ± 0.025,0.953 ± 0.029,0.959 ± 0.021
GALK1 (UniProt P51570),0.952 ± 0.052,0.973 ± 0.042,0.948 ± 0.025,0.927 ± 0.08,0.94 ± 0.03,0.963 ± 0.051
UniProt P52789 and related entries,1.01 ± 0.033,0.988 ± 0.03,0.988 ± 0.017,0.949 ± 0.045,0.991 ± 0.015,0.988 ± 0.016
STT3A (UniProt P46977),1.04 ± 0.1,1.01 ± 0.096,1.01 ± 0.051,0.93 ± 0.1,1.03 ± 0.072,0.983 ± 0.067
UniProt P49757 and related entries,1.1 ± 0.045,1.12 ± 0.044,1.11 ± 0.019,1.14 ± 0.018,1.09 ± 0.022,1.103 ± 0.0072
UniProt P52630 and related entries,1.01 ± 0.12,1.02 ± 0.092,1.03 ± 0.07,0.977 ± 0.091,1.02 ± 0.06,0.982 ± 0.077
ALDH9A1 (UniProt P49189),1.01 ± 0.049,0.992 ± 0.061,0.967 ± 0.035,0.975 ± 0.06,0.982 ± 0.049,0.988 ± 0.051
RFC5 (UniProt P40937),1.17 ± 0.031,1.24 ± 0.059,1.24 ± 0.021,1.23 ± 0.058,1.24 ± 0.04,1.3 ± 0.041
CRKL (UniProt P46109),0.967 ± 0.054,0.986 ± 0.027,0.968 ± 0.016,0.968 ± 0.026,0.961 ± 0.013,0.961 ± 0.015
UniProt P52333 and related entries,1.0769 ± 0.00054,1.02 ± 0.04,1 ± 0.039,1.03 ± 0.026,1.03 ± 0.028,1.05 ± 0.042
UniProt P52739 and related entries,1.02 ± 0.2,0.999 ± 0.12,0.994 ± 0.13,0.951 ± 0.11,0.995 ± 0.14,1.02 ± 0.088
UniProt P41229 and related entries,0.999 ± 0.041,1.02 ± 0.063,1 ± 0.011,0.996 ± 0.042,0.988 ± 0.027,1.01 ± 0.046
UniProt P51149,0.99 ± 0.08,0.976 ± 0.083,0.938 ± 0.053,0.932 ± 0.12,0.961 ± 0.084,0.939 ± 0.066
MRPL19 (UniProt P49406),1.02 ± 0.091,0.896 ± 0.032,0.845 ± 0.051,0.851 ± 0.17,0.85 ± 0.072,0.855 ± 0.082
KNTC1 (UniProt P50748),1.07 ± 0.11,1.01 ± 0.082,1.01 ± 0.072,0.932 ± 0.054,1 ± 0.026,0.969 ± 0.051
UniProt P49750-3|P49750-4,1.1 ± 0.056,1.16 ± 0.044,1.21 ± 0.046,1.36 ± 0.073,1.37 ± 0.015,1.47 ± 0.066
PRKX (UniProt P51817),0.958 ± 0.096,1.02 ± 0.013,1.07 ± 0.032,1.08 ± 0.099,0.958 ± 0.026,1.01 ± 0.03
GTF2A1 (UniProt P52655),0.923 ± 0.074,0.955 ± 0.22,0.905 ± 0.098,0.981 ± 0.12,0.8465 ± 0.0041,0.86 ± 0.16
UniProt P52758,0.912 ± 0.053,0.955 ± 0.029,0.929 ± 0.03,0.904 ± 0.072,0.896 ± 0.028,0.877 ± 0.076

Target,NP40-soluble protein abundance (concentration: 1mM),NP40-soluble protein abundance (concentration: 2mM),NP40-soluble protein abundance (concentration: 4mM),NP40-soluble protein abundance (concentration: 6mM),NP40-soluble protein abundance (concentration: 8mM),NP40-soluble protein abundance (concentration: 10mM)
RPL21 (UniProt P46778),0.958 ± 0.086,0.911 ± 0.13,0.842 ± 0.13,0.819 ± 0.14,0.527 ± 0.039,0.872 ± 0.11
NSF (UniProt P46459),1.03 ± 0.03,0.999 ± 0.02,0.9712 ± 0.0089,0.987 ± 0.035,0.99 ± 0.042,0.976 ± 0.047
SMS (UniProt P52788),0.9815 ± 0.0077,0.97 ± 0.031,0.955 ± 0.023,1 ± 0.059,0.968 ± 0.042,0.93 ± 0.041
UniProt P49720,0.83 ± 0.073,0.839 ± 0.091,0.839 ± 0.058,0.724 ± 0.051,0.854 ± 0.094,0.894 ± 0.081
UniProt P48960 and related entries,0.961 ± 0.045,0.97 ± 0.026,0.954 ± 0.032,0.999 ± 0.049,0.949 ± 0.025,0.897 ± 0.055
PIK3CG (UniProt P48736),0.962 ± 0.049,0.948 ± 0.028,1 ± 0.071,0.876 ± 0.069,0.971 ± 0.057,1.01 ± 0.017
CCT5 (UniProt P48643),1.02 ± 0.028,0.91 ± 0.028,0.83 ± 0.018,0.857 ± 0.12,0.871 ± 0.054,0.826 ± 0.051
CRIP2 (UniProt P52943),0.961 ± 0.045,0.973 ± 0.022,0.952 ± 0.022,0.976 ± 0.013,0.952 ± 0.05,0.94 ± 0.053
MLH1 (UniProt P40692),1.28 ± 0.03,1.31 ± 0.032,1.32 ± 0.015,1.31 ± 0.039,1.33 ± 0.046,1.3 ± 0.086
CCNH (UniProt P51946),0.99 ± 0.073,1.04 ± 0.096,1.01 ± 0.14,0.987 ± 0.098,1.03 ± 0.034,1.01 ± 0.12
MTIF2 (UniProt P46199),1.04 ± 0.039,1.04 ± 0.038,0.986 ± 0.046,0.9388 ± 0.0065,0.968 ± 0.073,0.976 ± 0.035
RPL14 (UniProt P50914),0.895 ± 0.061,0.865 ± 0.097,0.805 ± 0.099,0.818 ± 0.14,0.497 ± 0.16,0.835 ± 0.1
SRP9 (UniProt P49458),0.979 ± 0.027,0.968 ± 0.048,0.947 ± 0.031,0.995 ± 0.05,0.992 ± 0.016,0.951 ± 0.079
NAMPT (UniProt P43490),1.03 ± 0.087,0.998 ± 0.072,0.979 ± 0.074,0.95 ± 0.13,0.992 ± 0.049,0.978 ± 0.068
RAB27A (UniProt P51159),0.997 ± 0.066,0.993 ± 0.025,0.981 ± 0.048,0.962 ± 0.1,0.98 ± 0.048,0.99 ± 0.066
SERPINH1 (UniProt P50454),0.962 ± 0.017,0.9584 ± 0.0094,0.964 ± 0.015,0.948 ± 0.026,0.917 ± 0.018,0.913 ± 0.011
RPL28 (UniProt P46779),0.92 ± 0.097,0.874 ± 0.16,0.821 ± 0.12,0.798 ± 0.21,0.575 ± 0.18,0.81 ± 0.13
GMPS (UniProt P49915),1.01 ± 0.053,0.982 ± 0.052,0.965 ± 0.021,0.961 ± 0.089,0.999 ± 0.03,0.978 ± 0.036
UniProt P48059 and related entries,1 ± 0.067,1.02 ± 0.09,1.01 ± 0.1,0.983 ± 0.071,1.03 ± 0.059,0.989 ± 0.044
EIF4A3 (UniProt P38919),1.09 ± 0.17,1.06 ± 0.12,1.05 ± 0.084,0.959 ± 0.18,1.09 ± 0.053,1.08 ± 0.08
